A short description of this assay: qHTS Assay for Lipid Storage Modulators in Drosophila S3 Cells.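 For cell number change: cells counted by Cell Tracker Red CMTPX staining in the red channel.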 The note with it: BODIPY lipid droplet fluorescence, 18-24 h; for cell number change: measured here: cell count max response, cells fed with added oleic acid. An outline of the steps:
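Laser-scanning cytometry quantifies lipid droplet accumulation (500–530 nm total intensity; droplet/cell object ratio) in oleic acid-fed (400 uM added) Drosophila S3 cells treated with a concentration series. 20 uM Triacsin C defined 100% inhibition.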
Background: In qHTS, concentration-response curves come from the screen itself.

[1] abbreviates: measured here: cell number channel AC50, cells fed with added oleic acid.
Where [2] appears, read: measured here: lipid fluorescence (Fed channel) AC50, cells fed with added oleic acid.

Molecules are shown by their SMILES. The list shows a part of the results. The main result of the screen is listed elsewhere. These columns were measured beside it and carry no call. Compounds called inactive in the main read-out are mostly missing here. Potencies come from curve fits of mixed quality, noted in brackets.

With `NC(=O)c1ccccc1NC(=O)/C=C/C(=O)O`, the cell number change was -14.3%. Under setting [1], the AC50 was 164 nM [falling, full curve, poor fit]. For the same compound, the AC50 under setting [2] was 731 nM [falling, full curve].

Take `COc1cc(C(=O)NC(c2ccccc2)c2ccccc2)cc(OC)c1C`: the cell number change worked out at 12.4%.

For the compound `CCN(CCN(C)C)C(=O)Cn1ncc2c1-c1cc(C)ccc1OC2`, the AC50 under setting [2] is 4.61 nM [rising, full curve, poor fit].

With `CCOC(=O)CC1C(=O)NCCN1c1nc2ccc(C)cn2c(=O)c1/C=C1\SC(=S)N(CC(C)C)C1=O` (centres undefined), the cell number change is -56.6%. Also, the AC50 under setting [1] is 29100 nM [falling, single point]. In addition, the AC50 under setting [2] was 4610 nM [falling, full curve].

Turning to `COc1ccccc1C(=O)Nc1nnc(C)s1`, the cell number change stood at 42.3%. Besides, the AC50 under setting [2] is 2060 nM [rising, partial curve].

Consider `O=C(c1sc2cccc(Cl)c2c1Cl)N1CCN(CCc2ccccn2)CC1`, for which the cell number change is 27.4%. The AC50 under setting [2] was 20600 nM [rising, single point].

Take `CC1CCN(S(=O)(=O)c2ccccc2[N+](=O)[O-])CC1`: the cell number change was -5.02%. Also, the AC50 under setting [2] is 6510 nM [falling, single point].

With `Cn1c(=O)[nH]c(=O)c2c1nc(Br)n2Cc1cccc(Br)c1`, the cell number change came to 37.6%. Moreover, under setting [1], the AC50 was 11.6 nM [rising, full curve, poor fit]. For the same compound, under setting [2], the AC50 was 29100 nM [falling, single point].

As to `COc1ccc(NC(C)=O)cc1NC(=O)CSc1nnc(-c2cccnc2)n1C`, the cell number change turned out to be 10%. Moreover, the AC50 under setting [2] was 580 nM [rising, full curve].

Regarding `COc1ccc(C2=NN(C(=O)c3cccs3)C(c3ccccc3OC)C2)cc1OC` (centres undefined), the cell number change came out at 13.3%.

For `Oc1cncc(-c2cccnc2)c1`, the cell number change is -0.678%. Also, under setting [2], the AC50 is 4610 nM [rising, partial curve, poor fit].

On to `COc1ccc(CC(=O)OCC(=O)N2CCCc3ccccc32)cc1OC`, for which, under setting [2], the AC50 was 6510 nM [rising, single point].

As for `Cc1cc(C)c(C(=O)OCCNC(=O)c2cccnc2)cc1C`, the cell number change was -15%. For the same compound, the AC50 under setting [2] is 2060 nM [rising, partial curve, poor fit].

`COc1cc2nc(N3CCNCC3)nc(N)c2cc1OC`: the cell number change was -5.81%. Besides, the AC50 under setting [1] is 6510 nM [falling, single point].

On to `c1ccc(-c2[nH]ncc2CN2CCc3ccccc3C2)cc1`, for which the cell number change is -43.3%. In addition, under setting [1], the AC50 was 920 nM [falling, full curve]. For the same compound, under setting [2], the AC50 is 517 nM [falling, full curve].

Turning to `Cc1onc(-c2c(F)cccc2Cl)c1C(=O)NC1CCCCCC1`, the cell number change was -7.89%.

For `COc1cnn(-c2ccccc2)c(=O)c1SCc1ccc(Cl)c(Cl)c1`, the cell number change is -27.8%.

As for `Cc1ccc(C)c(S(=O)(=O)N2CCN(C(=O)CSc3ccccc3)CC2)c1`, the cell number change turned out to be 2.7%. Moreover, under setting [2], the AC50 is 651 nM [rising, partial curve, poor fit].

Turning to `CCCCn1nc2cc(C(=O)NCc3cc(C(F)(F)F)cc(C(F)(F)F)c3)ccc2c1OC`, the AC50 under setting [2] is 580 nM [rising, single point].

On to `Cc1ccc(/C=N/NC(=O)c2ccc(-n3cnnn3)cc2)cc1`, for which the cell number change is 6.19%. The AC50 under setting [2] was 32600 nM [rising, single point].

For the compound `O=[N+]([O-])c1ccc(S(=O)(=O)Nc2nc3ccccc3nc2Nc2ccccc2)cc1`, the cell number change was -23.5%. Further, the AC50 under setting [1] is 3660 nM [falling, single point]. Also, the AC50 under setting [2] is 2910 nM [falling, full curve, poor fit].

On to `O=C(NC(=S)NCC1CCCO1)c1ccc(Cl)cc1` (centres undefined), for which the cell number change was found to be 14.7%. For the same compound, the AC50 under setting [2] was 517 nM [rising, full curve, poor fit].

For `C[C@H]1CN=C(Nc2ccccc2)N1CC1CCC1`, the cell number change came out at 18.6%. Further, under setting [2], the AC50 was 29100 nM [rising, single point].

On to `Cc1ccc(NS(=O)(=O)c2ccc(C(=O)N3CCCCCCC3)cc2)cc1`, for which the cell number change was -21.1%. Further, under setting [2], the AC50 is 6510 nM [rising, single point].

On to `COc1cc([N+](=O)[O-])ccc1NC(=O)CSc1nncn1-c1cccnc1`, for which the cell number change was determined as 4.58%.

Consider `Cc1ccccc1NC(=O)NCC1CCN(C(=O)OC(C)(C)C)CC1`, for which the cell number change was -27.9%. Moreover, the AC50 under setting [2] was 16400 nM [falling, partial curve, poor fit].

With `COCCCNC(=O)CCc1ccc(S(=O)(=O)Nc2ccc(C)cc2)cc1`, the cell number change amounted to 139%. The AC50 under setting [1] is 5170 nM [rising, partial curve].

In the case of `CC(=O)c1ccc(NC(=O)C2CCCN(S(=O)(=O)c3c(C)[nH]c(=O)[nH]c3=O)C2)cc1` (centres undefined), the cell number change was -29.6%. For the same compound, the AC50 under setting [2] is 1160 nM [falling, full curve].

Turning to `OC/C(Br)=C(\Br)CO`, the cell number change was -0.565%. The AC50 under setting [2] was 8200 nM [rising, single point].

Regarding `O=C(CN1C(=O)NC2(CCCCCC2)C1=O)NC1CCCCCCC1`, the cell number change is -0.541%. Further, under setting [1], the AC50 was 4110 nM [falling, single point]. For the same compound, the AC50 under setting [2] is 2590 nM [falling, partial curve].

Consider `CN(C)CC1CCCCC1OC(=O)c1ccc(S(=O)(=O)N(C)c2ccccc2)cc1` (centres undefined), for which the cell number change was -24.6%. Under setting [2], the AC50 was 580 nM [falling, single point].

For the compound `O=C(CCCC(=O)N(CC(=O)NC1CCCCC1)Cc1ccccc1)Nc1ccccn1`, the cell number change stood at 33.5%. Further, the AC50 under setting [1] is 18400 nM [rising, single point].

With `O=C(NC1CC2CCCC(C1)N2Cc1ccccc1)c1ccc([N+](=O)[O-])cc1` (centres undefined), the cell number change was 11.1%. The AC50 under setting [2] was 2590 nM [falling, single point].

Take `Cc1ccc(N(CC(O)CN(C)C)S(=O)(=O)c2ccccc2)cc1` (centres undefined): under setting [2], the AC50 is 5800 nM [falling, partial curve].

Regarding `CC(C)(C)OC(=O)CN1C(=O)NC2(CCCc3ccccc32)C1=O` (centres undefined), the cell number change was found to be 20.3%. The AC50 under setting [2] was 23100 nM [rising, single point].

As for `C[C@H](N)c1nnc(SCC(N)=O)o1`, the cell number change was -7.34%.

On to `CCN(CC(=O)Nc1cccc(OC)c1)C(=O)c1ccc(C)s1`, for which the AC50 under setting [2] is 731 nM [rising, single point].

Turning to `Cc1sc2c(c1C)CN(Cc1ccncc1)CN2C(=O)c1ccco1`, the AC50 under setting [1] is 1160 nM [rising, partial curve].

`CCOc1cc(C#N)ccc1OCC(=O)NNC(=O)CC1CCS(=O)(=O)C1` (centres undefined): the cell number change was determined as 21.5%.

On to `COc1ccc(S(N)(=O)=O)cc1C(=O)NCCCN1CCN(c2cccc(Cl)c2)CC1`, for which the cell number change is 186%. Besides, the AC50 under setting [1] is 411 nM [rising, partial curve, poor fit]. Under setting [2], the AC50 was 4.61 nM [rising, full curve, poor fit].

As usually defined, the AC50 is the concentration at which the activity in the assay is half-maximal. A higher AC50 goes with weaker potency.

For the origin of these results see PubChem BioAssay AID2685 (National Center for Advancing Translational Sciences (NCATS), 2010).
